Results on five molecules are retold here after patent US20230416726A1 (University of Washington, published 2023).

Chains of the proteins cited; added tags and fusions are not shown. Residues count along the entry.
UniProt P04629, residues 36-382: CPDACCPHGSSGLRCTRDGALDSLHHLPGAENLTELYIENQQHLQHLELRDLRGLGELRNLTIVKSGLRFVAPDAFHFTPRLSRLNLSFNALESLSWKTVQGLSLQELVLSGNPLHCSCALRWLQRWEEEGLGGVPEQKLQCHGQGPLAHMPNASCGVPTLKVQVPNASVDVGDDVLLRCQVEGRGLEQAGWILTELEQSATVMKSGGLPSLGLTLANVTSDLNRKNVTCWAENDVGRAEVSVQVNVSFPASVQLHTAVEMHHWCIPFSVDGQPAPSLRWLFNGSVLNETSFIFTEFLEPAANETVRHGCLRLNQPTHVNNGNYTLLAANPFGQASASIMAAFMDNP
UniProt Q9NZQ7, residues 19-239: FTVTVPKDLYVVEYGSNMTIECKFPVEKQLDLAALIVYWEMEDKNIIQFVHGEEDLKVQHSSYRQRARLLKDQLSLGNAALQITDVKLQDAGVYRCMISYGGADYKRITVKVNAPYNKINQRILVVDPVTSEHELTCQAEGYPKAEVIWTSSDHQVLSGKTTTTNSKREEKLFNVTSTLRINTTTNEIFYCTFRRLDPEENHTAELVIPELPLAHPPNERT

No constants are given. Whether binding was seen depends on the method and setting. Some entries that bind do so weakly or less than the wild type.

For assay [1], the target named is Tropomyosin receptor kinase A (TrkA) (UniProt P04629). In words: BLI, biotinylated TrkA on streptavidin tips. (In general: In BLI a coated tip is dipped into the sample, and binding shifts an interference pattern.)
Assay [2] has the same target. The experiment in a line: BLI, biotinylated TrkA on streptavidin tips, binder in solution, max signal versus binder concentration.
Assay [3] shares this target. The experiment in a line: BLI, max binding signal versus concentration.
In assay [4] the target is programmed cell death ligand 1 (PD-L1) (UniProt Q9NZQ7). The experiment in a line: BLI, max binding signal versus PD-L1 concentration.
For assay [5] the target is unchanged. In words: BLI (FIG. 3A-C).
The target is the same in assay [6]. In words: Yeast display flow cytometry of a clonal population; binding signal PE-H normalized to expression FITC-H.

B1: trkA_56 (designed binder, not shown: small tags and cut ends)
chain: DLDIIRRAAAELKRYEEKAEEFKEHLFKQVVRLIVTPEYQANPEKLEEVIQKIKDLEEEVEKKKEELFKEVVRAIVTGDHALAERVIERARELIEEIEKKKKEISEEVELG
Take B1: the binding result in assay [1], in assay [2] and in assay [3] was “binds” in each case.

B2: trkA_hal_1 F68R (designed binder)
single chain: DLDIIRRAAAELKRYEEKAEEFKEHLFKQVVRLIVTPEYQANPEKLEEVIQKIKDLEEEVEKKKEELRKEVVRAIVTGDHALAERVIERARELIEEIEKKKKEISEEVELG
Consider B2, for which, in assay [2], the binding result was “binds”.

B3: trkA_hal_1 F27R (designed binder)
single chain: DLDIIRRAAAELKRYEEKAEEFKEHLRKQVVRLIVTPEYQANPEKLEEVIQKIKDLEEEVEKKKEELFKEVVRAIVTGDHALAERVIERARELIEEIEKKKKEISEEVELG
Take B3: the binding result in assay [2] was “binds”.

B4: pdl1_inp_1 (purified from E. coli) (designed binder)
chain: DLEEFFEECLKEAEEVRKEVLEGKARIQIKESVRKEDPEGGTYVCGVISLGPKGGKFHVVFHKEDPEGKEETLARFEFKVEGGKVELLELKSKDPELKKLAEKYAEKLLE
notes: Expressed as a monomer; Tested by BLI; not shown: C-terminal SNAC tag and 6xHis tag from the modified pET29b+ vector
For B4, the binding result in assay [4] and in assay [5] was “binds” each time.

B5: pdl1_inp_1 displayed on yeast (designed binder, not shown: large carriers)
chain: DLEEFFEECLKEAEEVRKEVLEGKARIQIKESVRKEDPEGGTYVCGVISLGPKGGKFHVVFHKEDPEGKEETLARFEFKVEGGKVELLELKSKDPELKKLAEKYAEKLLE
B5: the binding result in assay [6] is “binds”.
